According to the supplement of paper PMC7411640:
Structures can show the parent of a compound that is named as a salt. Some of the results follow. This data set is noisy: repeats of one test often differ as much as different tests do.

Each compound was assayed on MDA-MB-468 (assay: phospho-S6 immunofluorescence (DAPI-normalised), per-plate z-score; higher = higher phospho-S6 signal (less pathway suppression)). Conditions: compound 0.1 µM; co-treatment: lapatinib 1 uM; 24 h.
Experimental: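 GPCR-targeted compound library (MedChemExpress HY-L006) tested on MDA-MB-468 PTEN-null TNBC cells in 384-well plates at 0.1, 1 or 10 uM, combined with vehicle, GDC0941 450 nM or lapatinib 1 uM, for 24 h. Phospho-S6 (S240/244) immunofluorescence normalised to DAPI and expressed as a per-plate z-score; values are the mean of biological triplicates.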
For `O=C(NC(Cc1cc(=O)[nH]c2ccccc12)C(=O)O)c1ccc(Cl)cc1` (stereo not given) [Rebamipide], the “phospho-S6 immunofluorescence (z-score)” value was 0.23.
`Cc1nc(C(=O)N2CCC[C@H]2Cc2nnc(-c3ccccc3)o2)c(-c2ccccc2F)s1` was tested, and the “phospho-S6 immunofluorescence (z-score)” value was -0.35.
`Cc1cc(C(C)(C)C)cc(C)c1CC1=NCCN1` [Xylometazoline (hydrochloride)] was tested, and the “phospho-S6 immunofluorescence (z-score)” value was 0.24.
`C[C@]12CCC(=O)C=C1CC[C@@H]1[C@@H]2[C@@H](O)C[C@@]2(C)[C@H]1CC[C@]2(O)C(=O)CO` [Hydrocortisone] was tested, and the “phospho-S6 immunofluorescence (z-score)” value was 1.42.
`CN(C)CCOC(c1ccccc1)c1ccccc1.Cn1c(=O)c2[nH]c(Cl)nc2n(C)c1=O` [Dimenhydrinate] was tested, and the “phospho-S6 immunofluorescence (z-score)” value was 0.9.
With `CN(C)CCC=C1c2ccccc2C=Cc2ccccc21` [Cyclobenzaprine (hydrochloride)] the “phospho-S6 immunofluorescence (z-score)” value was 0.41.
`O=C(O)CC1CCC2(CC1)CCN(c1cc(OC(F)(F)F)ccc1Cl)CC2` was tested, and the “phospho-S6 immunofluorescence (z-score)” value was -0.27.
In the case of `O=C1CC2(CCCC2)CC(=O)N1CCCCN1CCN(c2ncccn2)CC1` [Buspirone (hydrochloride)], the “phospho-S6 immunofluorescence (z-score)” value is reported as 0.88.
With `COc1ccccc1Oc1c(NS(=O)(=O)c2ccc(C)cn2)nc(-c2ccncc2)nc1OC` [Avosentan] the “phospho-S6 immunofluorescence (z-score)” value was -0.36.
In the case of `Cc1ccc(-c2n[nH]c3c2C(c2cccc(O)c2)N(c2ccc(C(=O)O)cc2)C3=O)cc1` (stereo not given), the “phospho-S6 immunofluorescence (z-score)” value is reported as 0.02.
In the case of `CCOc1nc2cccc(C(=O)O)c2n1Cc1ccc(-c2ccccc2-c2nnn[nH]2)cc1` [Candesartan], the “phospho-S6 immunofluorescence (z-score)” value is reported as -0.23.
In the case of `NC(N)=Nc1nc(CSCC/C(N)=N/S(N)(=O)=O)cs1` [Famotidine], the “phospho-S6 immunofluorescence (z-score)” value is reported as -0.36.
`CC(C)(Cc1ccc2ccccc2c1)NC[C@@H](O)COc1cccc(Cl)c1C#N` [NPS-2143 (hydrochloride)] was tested, and the “phospho-S6 immunofluorescence (z-score)” value was -0.77.
In the case of `Cc1cc2c(s1)Nc1ccccc1N=C2N1CCN(C)CC1` [Olanzapine], the “phospho-S6 immunofluorescence (z-score)” value is reported as 1.46.
For `CCOC(=O)N1CCC(NCCNC(=O)c2ccccc2C)CC1`, the “phospho-S6 immunofluorescence (z-score)” value was 1.
For `CN1[C@@H]2CC[C@H]1C[C@@H](OC(=O)c1c[nH]c3ccccc13)C2` [Tropisetron (Hydrochloride)], the “phospho-S6 immunofluorescence (z-score)” value was -0.65.
`CCc1cc2c(cc1CC)CC(NC[C@H](O)c1ccc(O)c3[nH]c(=O)ccc13)C2` [Indacaterol (maleate)] was tested, and the “phospho-S6 immunofluorescence (z-score)” value was 1.9.
For `O=c1[nH]c2ccccc2n1CCN1CCN(c2cccc(C(F)(F)F)c2)CC1` [Flibanserin], the “phospho-S6 immunofluorescence (z-score)” value was -0.18.
`C[N+](C)(C)CCOC(N)=O` [Carbamoylcholine (chloride)] was tested, and the “phospho-S6 immunofluorescence (z-score)” value was -0.52.
In the case of `CC(C)(C)NCC(O)c1cc(O)cc(O)c1` (stereo not given) [Terbutaline (sulfate)], the “phospho-S6 immunofluorescence (z-score)” value is reported as 1.4.
With `COc1nc(C)cnc1NS(=O)(=O)c1cccnc1-c1ccc(-c2nnco2)cc1` [Zibotentan] the “phospho-S6 immunofluorescence (z-score)” value was -1.64.
In the case of `O=C(CN1C(=O)C2(CCCC2)NC[C@H]1c1cc(F)cc(F)c1)Nc1ccc2c(c1)C[C@@]1(C2)C(=O)Nc2ncccc21` [MK-3207 (Hydrochloride)], the “phospho-S6 immunofluorescence (z-score)” value is reported as -0.48.
`CCN(CC)CCCC(C)Nc1nc(C)cc(Nc2ccc3nc(C)cc(N)c3c2)n1` (stereo not given) was tested, and the “phospho-S6 immunofluorescence (z-score)” value was 0.5.
`CCC(=O)NC[C@@H]1C[C@H]1c1cccc2c1CCO2` [Tasimelteon] was tested, and the “phospho-S6 immunofluorescence (z-score)” value was -0.28.
`CCOc1nc2cccc(C(=O)OC(C)OC(=O)OC3CCCCC3)c2n1Cc1ccc(-c2ccccc2-c2nn[nH]n2)cc1` (stereo not given) [Candesartan (Cilexetil)] was tested, and the “phospho-S6 immunofluorescence (z-score)” value was 0.05.
`Clc1ccc(Cn2c(CN3CCCC3)nc3ccccc32)cc1` [Clemizole (hydrochloride)] was tested, and the “phospho-S6 immunofluorescence (z-score)” value was 0.03.
In the case of `CN(C)CCN1C(=O)c2cccc3cc(NC(N)=O)cc(c23)C1=O`, the “phospho-S6 immunofluorescence (z-score)” value is reported as 0.53.
For `CC(C)C[C@H](NC(=O)[C@@H](COC(C)(C)C)NC(=O)[C@H](Cc1ccc(O)cc1)NC(=O)[C@H](CO)NC(=O)[C@H](Cc1c[nH]c2ccccc12)NC(=O)[C@H](Cc1cnc[nH]1)NC(=O)[C@@H]1CCC(=O)N1)C(=O)N[C@@H](CCCNC(=N)N)C(=O)N1CCC[C@H]1C(=O)NNC(N)=O` [Goserelin (acetate)], the “phospho-S6 immunofluorescence (z-score)” value was 1.14.
For `CN1Cc2c(N)cccc2C(c2ccccc2)C1` (stereo not given) [Nomifensine (maleate)], the “phospho-S6 immunofluorescence (z-score)” value was 0.31.
For `O=c1cc(CN2CCOCC2)occ1OCCCCCSc1ccnc2cc(C(F)(F)F)ccc12`, the “phospho-S6 immunofluorescence (z-score)” value was -0.18.
`COc1cccc(CCc2ccccc2OCC(CN(C)C)OC(=O)CCC(=O)O)c1` (stereo not given) [Sarpogrelate (hydrochloride)] was tested, and the “phospho-S6 immunofluorescence (z-score)” value was 0.37.
`COc1cccc(-c2c(C)n(Cc3c(F)cccc3C(F)(F)F)c(=O)n(C[C@H](NCCCC(=O)O)c3ccccc3)c2=O)c1F` [Elagolix] was tested, and the “phospho-S6 immunofluorescence (z-score)” value was 0.14.
`CN1CCN2c3c(cccc31)[C@@H]1CN(CCCC(=O)c3ccc(F)cc3)CC[C@@H]12` [lumateperone (Tosylate)] was tested, and the “phospho-S6 immunofluorescence (z-score)” value was -3.9.
With `CN(C)CCCN1c2ccccc2Sc2ccc(C(F)(F)F)cc21` [Triflupromazine (hydrochloride)] the “phospho-S6 immunofluorescence (z-score)” value was 0.07.
`COc1cc2nc(N3CCN(C(=O)C4COc5ccccc5O4)CC3)nc(N)c2cc1OC` (stereo not given) [Doxazosin (mesylate)] was tested, and the “phospho-S6 immunofluorescence (z-score)” value was -0.44.
With `CSc1ccc2c(c1)N(CCC1CCCCN1C)c1ccccc1S2` (stereo not given) [Thioridazine (hydrochloride)] the “phospho-S6 immunofluorescence (z-score)” value was 0.66.
`O=C(O)COc1cccc(CN(Cc2ccc(-n3cccn3)cc2)S(=O)(=O)c2cccnc2)c1` [Taprenepag] was tested, and the “phospho-S6 immunofluorescence (z-score)” value was 0.53.
With `Cc1nn(C)c2c1C(c1ccc(C(F)(F)F)cc1)C(C#N)=C(N)O2` (stereo not given) the “phospho-S6 immunofluorescence (z-score)” value was -0.16.
For `OCCOCCN1CCN(C2=Nc3ccccc3Sc3ccccc32)CC1` [Quetiapine], the “phospho-S6 immunofluorescence (z-score)” value was 0.46.
`N=C(N)NCCC[C@H](NC(=O)[C@H](Cc1ccccc1)NC(=O)[C@@H]1CCCN1C(=O)[C@H](CO)NC(=O)[C@H](Cc1ccccc1)NC(=O)CNC(=O)[C@@H]1CCCN1C(=O)[C@@H]1CCCN1C(=O)[C@@H](N)CCCNC(=N)N)C(=O)O` [Bradykinin] was tested, and the “phospho-S6 immunofluorescence (z-score)” value was 0.29.
